In general, AC50 refers to the concentration at which the activity in the assay is half-maximal.

Experimental findings from PubChem BioAssay AID493014 (National Center for Advancing Translational Sciences (NCATS), 2011) are described below.

The nature of this assay: qHTS Assay to Find Inhibitors of Chronic Active B-Cell Receptor Signaling. As to conditions: ABC-DLBCL IkBa-CBG/CBR reporter, luminescence ratio (green luciferase fused to IkBa over red control in TMD8 lymphoma cells), 4 h. Put shortly:
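Compounds up to 46 uM were incubated four hours with TMD8 cells whose green CBG68 luciferase is fused to IkappaBalpha; red CBR luminescence normalised the signal, and concentration-effect curves were fitted to fusion, red and ratio data.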

Where [1] appears, read: measured here: CBR red luminescence, cell number.
Where [2] appears, read: measured here: IkBa-CBG green luminescence.

SMILES strings stand for the structures. Some of the results follow. Further columns of the screen follow, without active or inactive calls. The list favours compounds with an active or inconclusive main result. The note in brackets gives the kind of curve behind each potency; many fits are weak.

Turning to `Cc1ccc(N(C)S(=O)(=O)c2ccc(-c3cnc(C4CC4)o3)cc2)cc1`, the AC50 runs as follows: under setting [1], 3.98 µM [rising, full curve]; under setting [2], 10 µM [falling, partial curve].

Take `C#CCOCCOCCOCCNc1nc(N2CCN(C(=O)CCCCCCCCCCNC(=O)[C@H](CCCCN)n3cc(CCO)nn3)CC2)nc(N2CCN(C(=O)CCCCCCCCCCNC(=O)[C@H](CCCCN)n3cc(CCCC(=O)O)nn3)CC2)n1`: the half-maximal activity concentration (AC50) under setting [1] is 11.6 µM [rising, partial curve].

In the case of `CCCCNC(=S)N1CCN(C(c2ccccc2)c2ccccc2)CC1`, the AC50 under setting [1] was 3.55 µM [falling, full curve].

In the case of `Cc1cnc(C(=O)Nc2nccs2)cn1`, the concentration at half-maximal activity (AC50) under setting [1] is 11.2 µM [falling, partial curve, poor fit].

As for `Cc1cccc(C(=O)c2cnc3ccccc3c2-c2ccccc2)c1`, the half-maximal activity concentration (AC50) under setting [1] was 16.4 µM [falling, partial curve, poor fit].

Regarding `CCOC(=O)N1CCC(Nc2c(NCCCN(C)Cc3ccccc3)c(=O)c2=O)CC1`, under setting [1], the AC50 was 16.4 µM [rising, partial curve, poor fit].

Turning to `COc1cc(C2C(C#N)=C(C)NC3=C2C(=O)c2ccccc23)cc(OC)c1OC` (stereo not drawn), the half-maximal activity concentration (AC50) was 1.3 µM [rising, full curve] under setting [1] and 1.16 µM [falling, full curve] under setting [2].

For `COc1cc(/C=N/OCC(=O)NC2CCCCC2C)ccc1OCc1ccc(Cl)cc1` (stereo not drawn), the half-maximal activity concentration (AC50) under setting [1] was 2.06 µM [rising, partial curve, poor fit].

As for `CCNc1ccc2noc3c2c1C(=O)c1ccccc1-3`, the AC50 under setting [1] is 0.13 µM [falling, full curve].

With `CC1CC2(CCCCC2)N2C(=O)C(=O)c3cccc1c32` (stereo not drawn), under setting [1], the AC50 was 11.2 µM [rising, single point].

Consider `CCOc1ccc2[nH]c(C(=O)N/N=C/c3ccc(OC)cc3)cc2c1`, for which the half-maximal activity concentration (AC50) is 7.08 µM [rising, full curve] under setting [1] and 10 µM [falling, partial curve] under setting [2].

As for `CCCOc1ccc(Cn2c(=O)oc3ccc(C)cc32)cc1`, the AC50 under setting [1] was 35.5 µM [rising, single point].

On to `Cc1ccc2c(CN3CCN(Cc4ccc5c(c4)OCO5)CC3)cc(=O)oc2c1C`, for which the AC50 under setting [1] was 6.51 µM [rising, single point].

As to `O=C1N/C(=N/N=C/c2ccccc2O)SC1Cc1ccc(F)cc1` (stereo not drawn), the AC50 reads like this: under setting [1], 4.47 µM [falling, partial curve, poor fit]; under setting [2], 2.82 µM [falling, full curve].

For `COC(=O)C1=NN(C(=O)c2cccc(Br)c2)C(O)(c2ccc(Cl)cc2)C1` (stereo not drawn), under setting [1], the AC50 is 8.91 µM [falling, partial curve].

Turning to `COCCn1c(=S)[nH]c2cc(C(=O)N3CCc4ccccc4C3)ccc2c1=O`, under setting [1], the AC50 was 3.55 µM [falling, partial curve, poor fit].

For the compound `O=C(NC(=S)Nc1ccc(S(=O)(=O)Nc2nccs2)cc1)c1ccccc1`, the AC50 under setting [1] is 11.6 µM [falling, partial curve].

`CCCC(C(=O)NCc1ccco1)N(C(=O)CNS(=O)(=O)c1ccccc1)c1ccccc1OC` (stereo not drawn): the AC50 under setting [1] is 2.91 µM [falling, full curve, poor fit].

`CN(C)CCN(C(=O)/C=C/c1cccs1)c1nc2ccc(F)cc2s1`: the half-maximal activity concentration (AC50) under setting [1] is 8.2 µM [falling, partial curve].

In the case of `CCOc1cc(C)c(Cl)cc1S(=O)(=O)NCc1ccc2c(c1)OCO2`, the half-maximal activity concentration (AC50) under setting [1] was 35.5 µM [falling, single point].

With `Cc1cc2nnc(SCC(=O)N3CCCCCC3)n2c(N)n1`, the half-maximal activity concentration (AC50) under setting [1] is 5.62 µM [falling, full curve, poor fit].

Turning to `Cc1cc(C)c2ccc(N)nc2c1O`, the half-maximal activity concentration (AC50) under setting [1] was 14.6 µM [rising, partial curve, poor fit].

Consider `COC(=O)CNC(=O)c1cc(-c2ccncc2)nc2c(C)c(Cl)ccc12`, for which the concentration at half-maximal activity (AC50) under setting [1] was 12.6 µM [falling, partial curve, poor fit].

Turning to `CCC(C)c1ccc(NC(=S)NCCn2cc(Br)cn2)cc1` (stereo not drawn), under setting [1], the AC50 was 12.6 µM [rising, partial curve, poor fit].

As for `CCc1nnc(NC(=O)c2ccc3ncsc3c2)s1`, the concentration at half-maximal activity (AC50) under setting [1] was 15.8 µM [falling, single point].

For the compound `Cc1cc2cc(CN(Cc3ccc4c(c3)OCO4)C(=O)c3ccco3)c(=O)[nH]c2cc1C`, the AC50 under setting [1] was 12.6 µM [falling, single point].

As to `CCCN(CCC)c1nc(NC2CCN(C(=O)OCC)CC2)nc(OC)n1`, the AC50 under setting [1] was 35.5 µM [falling, single point].

On to `Cc1ccc(CN2CCN(Cc3cn(C(C)C)c4ccccc34)CC2CCO)o1` (stereo not drawn), for which the AC50 under setting [1] was 6.31 µM [falling, partial curve, poor fit].

Turning to `COc1ccccc1C(=O)Nc1ccc2nc3n(c(=O)c2c1)CCCC3`, the half-maximal activity concentration (AC50) under setting [1] was 11.2 µM [falling, partial curve, poor fit].

As for `O=C1C2C3C=CC(O3)C2C(=O)N1CC(O)c1ccccc1` (stereo not drawn), under setting [1], the AC50 was 0.103 µM [rising, full curve, poor fit].

For the compound `CC1=NN(Cc2cc(C(C)(C)C)c(O)c(C(C)(C)C)c2)C(=O)C1`, the AC50 under setting [1] was 28.2 µM [falling, single point].

Turning to `Cc1[nH]n(-c2ccccc2)c(=O)c1C=NC1CCCCCC1`, the half-maximal activity concentration (AC50) under setting [1] is 22.4 µM [falling, single point].

On to `CCc1cc(=O)n2c([nH]c3ccccc32)c1C#N`, for which, under setting [1], the AC50 was 0.92 µM [falling, full curve].

As to `COc1cc(N=c2oc3c(C)ncc(CO)c3cc2C(N)=O)cc(OC)c1OC`, the AC50 under setting [1] was 3.55 µM [falling, full curve].

For the compound `COC(=O)c1ccc(Cl)c(NC(=O)CSc2ncn[nH]2)c1`, the concentration at half-maximal activity (AC50) under setting [1] was 23.1 µM [falling, single point].

On to `Clc1ccccc1-c1nnc2sc(-c3ccccn3)nn12`, for which, under setting [1], the AC50 was 0.00461 µM [rising, full curve, poor fit].

As for `O=C(NCc1cccs1)C(=O)NCC1OCCCN1S(=O)(=O)c1cccs1` (stereo not drawn), the concentration at half-maximal activity (AC50) under setting [1] is 35.5 µM [rising, single point].

On to `CCc1ccc(S(=O)(=O)ON2C(=O)c3ccccc3C2=O)cc1`, for which, under setting [1], the AC50 was 11.2 µM [falling, partial curve].

For the compound `C=C(C)C(=O)Nc1ccc(OC(F)(F)C(F)F)c(NC(=O)C(=C)C)c1`, the AC50 under setting [1] was 0.112 µM [falling, full curve, poor fit].
